At least one structure is not confirmed: it was looked up by name or label, or the drawing left a doubt.
Test system: male Sprague Dawley rats
Assay: Plasma variables after 4, 8 and 12 weeks of supplementation
Format: in vivo, rat
Conditions: Week 8, fasted rats, 20 μg Cr/kg daily i.v., mean ± SEM
Protocol: Solid food intake and body mass were monitored daily.
Blood was collected from the tail after four, eight, and twelve weeks of Cr or H2 O administration. Prior to blood collection, animals were fasted 12 to 15 hours.
Immediately after blood removal, 0.5 mg/mL heparin and 10 mg/mL NaF were added to the blood. Blood was next immediately centrifuged; the blood plasma was tested for glucose, total cholesterol, triglycerides, low density lipoprotein (LDL) cholesterol (week 12 only), and high density lipoprotein (HDL) cholesterol (week 12 only) using Diagnostic Kits from Sigma Chemical Co. (St. Louis, Mo.) and insulin using double antibody or antibody coated kits from ICN Biomedicals (Costa Mesa, Calif.).
Statistical analyses were performed by analysis of variance. All values are presented as mean±SEM. P values are calculated using standard deviations.

CCC(=O)[O-].CCC(=O)[O-].CCC(=O)[O-].CCC(=O)[O-].CCC(=O)[O-].CCC(=O)[O-].O.O.O.[Cr+3].[Cr+3].[Cr+3].[O-2] [Compound 1, [Cr3 O(O2 CCH2 CH3)6 (H2 O)3]^+]
Triglycerides: 41.8 ± 2-1 mg/dL

From patent publication US6149948A, “Method of decreasing plasma cholesterol and triglycerides with a chromium-containing complex” (University of Alabama, priority 1999, dated 2000)
